Source: PubChem BioAssay AID1487 (National Center for Advancing Translational Sciences (NCATS), 2009)
The other results are listed elsewhere or left out. These are further read-outs of the screen, such as a control signal, another cell line or another target. No call is given for them. The list favours compounds with an active or inconclusive main result. The note in brackets gives the kind of curve behind each potency; many fits are weak.

Assay: qHTS Assay for Modulators of Lamin A Splicing
Conditions: HeLa LMNA splicing GFP/RFP minigene ratio, 48 h
Method in brief: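 S3 HeLa cells stably expressing lamin A-EGFP splicing minigene plus DsRed2, 600 cells/well, 48 h compound exposure at 37C. Laser-scanning cytometry; analysed as GFP (500-530 nm)/RFP (575-640 nm) total intensity ratio; 0.5% DMSO vehicle.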

[1] = measured here: RFP viability control channel
[2] = measured here: GFP splicing reporter channel

| SMILES | AC50 [1] | AC50 [2] |
| --- | --- | --- |
| COc1ccc(N2CCN(Cc3cc4c(cc3O)CCC4)CC2)cc1 | 35.5 µM [rising, single point] | – |
| CN(C)N1C(N)=C(C#N)C(c2cccs2)C2=C1CC(C)(C)CC2=O (centres undefined) | 4.47 µM [rising, single point] | – |
| Cc1ccsc1C(C(=O)NC1CCCCC1)N(C(=O)Cc1cccs1)C1CC1 (centres undefined) | 2 µM [rising, full curve, poor fit] | – |
| CC(=O)O/N=C1\C(=O)N(Cc2ccc(C)cc2)c2ccccc21 | 0.501 µM [falling, full curve] | 0.794 µM [falling, full curve] |
| Oc1ccc(C(=S)N2CCCCC2)cc1Cl | 25.1 µM [rising, partial curve] | 22.4 µM [rising, single point] |
| CC(C)C(c1nnnn1C1CCCCC1)N1CCc2ccccc21 (centres undefined) | 12.6 µM [rising, single point] | – |
| CCOC(=O)c1ccc(NC(=O)c2c(NCc3cc(OC)ccc3OC)sc3c2CCC3)cc1 | – | 0.0398 µM [rising, full curve, poor fit] |
| O=C(c1ccc2c(=O)n(Cc3ccco3)c(=S)[nH]c2c1)N1CCN(Cc2ccccc2)CC1 | 6.31 µM [falling, partial curve, poor fit] | 6.31 µM [falling, partial curve, poor fit] |
| CC(C)OCCCNC(=O)C(NC(=O)c1ccc(Cl)cc1)C(C)C (centres undefined) | 0.00708 µM [rising, full curve, poor fit] | 1.41 µM [rising, partial curve] |
| CCSc1nnc(NC(=O)CSc2c(Cl)cccc2Cl)s1 | 20 µM [rising, single point] | – |
| C/C(=N/OC(=O)CC(C)C)c1cc(-c2ccc(Cl)cc2)no1 | 15.8 µM [rising, partial curve, poor fit] | 0.251 µM [rising, full curve] |
| Cc1ccccc1OCC(=O)N/N=C/c1ccc2c(c1)OCCO2 | 22.4 µM [rising, single point] | – |
| O=C(Nc1ccccc1)Nc1cc(OCC(F)(F)F)cc(OCC(F)(F)F)c1 | 22.4 µM [rising, single point] | 17.8 µM [rising, partial curve, poor fit] |
| O=C1N(CC(=O)N2CCc3ccccc32)CCN1Cc1ccc(Cl)cc1 | 31.6 µM [rising, single point] | – |
| O=C(NCc1ccccc1)c1cc(=O)nc2sc(-c3ccccc3)nn12 | 0.794 µM [falling, single point] | – |
| Cc1sc2nc(-c3cccs3)nc(N3CCCN(C)CC3)c2c1C | 15.8 µM [rising, single point] | 25.1 µM [rising, single point] |
| CCCC(=O)Nc1cc(C(=O)O)ccc1S(=O)(=O)c1ccc(Cl)cc1 | 0.0112 µM [falling, partial curve, poor fit] | – |

| SMILES | AC50 [1] | AC50 [2] |
| --- | --- | --- |
| O=C(COc1ccc(S(=O)(=O)NC2CCCCC2)cc1Cl)Nc1ccc2c(c1)OCO2 | 15.8 µM [rising, single point] | 15.8 µM [rising, single point] |
| O=C(N/N=C/c1ccc(O)cc1O)c1ccc(CN2C(=O)c3cccc4cccc2c34)cc1 | 35.5 µM [rising, single point] | – |
| CC(=O)N=Nc1[nH]c(N)c2ccccc12 | – | 0.00355 µM [falling, full curve, poor fit] |
| COc1cccc(CNc2ccccc2O)c1OCc1ccccc1F | 0.0282 µM [falling, full curve, poor fit] | 0.0447 µM [falling, full curve, poor fit] |
| Oc1c(C(Nc2ccccn2)c2cccnc2)cc(Cl)c2cccnc12 (centres undefined) | 15.8 µM [rising, partial curve] | 17.8 µM [rising, single point] |
| COc1ccc(C(=O)N2CCN(c3nc4c(C)c(Cl)ccc4s3)CC2)c(OC)c1 | 11.2 µM [rising, partial curve, poor fit] | – |
| CN1CCN(S(=O)(=O)c2cccc(C(=O)Nc3nc(-c4ccccc4)cs3)c2)CC1 | 35.5 µM [rising, single point] | 35.5 µM [rising, single point] |
| CCOc1ccc(NC(=O)CN(C)S(=O)(=O)c2ccc3[nH]c4c(c3c2)CCCC4)cc1 | 0.891 µM [falling, full curve, poor fit] | 7.94 µM [falling, partial curve] |
| Cc1cccc(C2c3[nH]c4ccccc4c3CCN2C(=O)c2cc(-c3cccn3C)n[nH]2)n1 (centres undefined) | 35.5 µM [rising, partial curve] | 35.5 µM [rising, partial curve] |
| COc1cc(NC(=S)NCCC(c2ccccc2)c2ccccc2)cc(OC)c1 | 35.5 µM [rising, single point] | 35.5 µM [rising, single point] |
| O=C(c1cccc(F)c1)N1CCN(c2cc(N3CCCCC3)c(F)cc2[N+](=O)[O-])CC1 | 14.1 µM [rising, single point] | – |
| Cc1c(C(=O)Nc2ccc(-c3nnc4n3CCCCC4)cc2)oc2ccc(Br)cc12 | 11.2 µM [rising, partial curve] | 7.94 µM [rising, partial curve, poor fit] |
| O=c1[nH]c2cc3c(cc2cc1CN(CCCO)C(=S)NCc1ccco1)OCO3 | 11.2 µM [falling, single point] | – |
| COc1cc(OC)c(OC)cc1/C=C/c1nc2ccccc2c(=O)n1-c1ccc(Br)c(C)c1 | 11.2 µM [rising, partial curve, poor fit] | – |
| CN(NC(=O)c1ccccc1)C1=NS(=O)(=O)c2ccccc21 | 0.0112 µM [falling, full curve, poor fit] | – |
| Cc1ccccc1CN1CCN(CC(=O)NCc2ccc3c(c2)OCO3)C1=O | 7.94 µM [rising, partial curve, poor fit] | 10 µM [rising, partial curve, poor fit] |

Two compounds picked at random from those above, as already listed:

| SMILES | AC50 [1] | AC50 [2] |
| --- | --- | --- |
| O=c1[nH]c2cc3c(cc2cc1CN(CCCO)C(=S)NCc1ccco1)OCO3 | 11.2 µM [falling, single point] | – |
| CC(=O)N=Nc1[nH]c(N)c2ccccc12 | – | 0.00355 µM [falling, full curve, poor fit] |
